For experiment [1], the target named is T1, FhuC (ATPase subunit, His-tagged, co-expressed with FhuB) (Escherichia coli) (UniProt P07821).
T1 sequence: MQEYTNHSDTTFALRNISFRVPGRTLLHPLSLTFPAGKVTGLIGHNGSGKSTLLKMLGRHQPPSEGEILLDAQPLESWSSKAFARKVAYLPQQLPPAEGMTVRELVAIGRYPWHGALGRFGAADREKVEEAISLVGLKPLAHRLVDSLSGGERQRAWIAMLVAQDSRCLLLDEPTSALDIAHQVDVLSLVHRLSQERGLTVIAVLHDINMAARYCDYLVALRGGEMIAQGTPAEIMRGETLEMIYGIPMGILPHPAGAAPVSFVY
As to the kind of experiment: SEC.

The target of experiment [2] is T1, FhuC (ATPase subunit, His-tagged, co-expressed with FhuB) (Escherichia coli). Briefly: cryo-EM structure.
Experiment [3] deals with T2, FhuB (membrane subunit, co-expressed with FhuC) (Escherichia coli) (UniProt P06972).
T2 sequence: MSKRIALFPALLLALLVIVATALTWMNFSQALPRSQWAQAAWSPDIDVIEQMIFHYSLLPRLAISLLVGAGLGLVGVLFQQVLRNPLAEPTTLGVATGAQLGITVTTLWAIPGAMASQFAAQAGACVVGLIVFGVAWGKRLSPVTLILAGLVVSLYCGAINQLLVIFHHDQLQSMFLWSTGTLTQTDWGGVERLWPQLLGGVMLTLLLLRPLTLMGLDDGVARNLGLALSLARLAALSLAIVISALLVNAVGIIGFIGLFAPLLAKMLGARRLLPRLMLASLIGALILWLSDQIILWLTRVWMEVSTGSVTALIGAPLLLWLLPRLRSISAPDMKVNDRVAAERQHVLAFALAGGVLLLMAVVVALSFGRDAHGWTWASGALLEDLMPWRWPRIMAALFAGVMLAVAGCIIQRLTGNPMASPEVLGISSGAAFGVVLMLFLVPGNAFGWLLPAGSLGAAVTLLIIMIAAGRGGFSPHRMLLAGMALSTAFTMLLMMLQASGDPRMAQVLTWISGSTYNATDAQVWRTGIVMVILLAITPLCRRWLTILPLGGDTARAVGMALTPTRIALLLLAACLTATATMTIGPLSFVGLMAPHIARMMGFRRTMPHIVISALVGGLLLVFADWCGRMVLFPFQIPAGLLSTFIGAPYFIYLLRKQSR
Briefly: cryo-EM structure.

The target in experiment [4] is T3, FhuCB subcomplex (wild type; membrane subunit FhuB and ATPase FhuC) (Escherichia coli) (UniProt P07821+P06972).
T3 sequence (chain, His-tag labeled with the red-tris-NTA 2nd generation dye (in the MST)) 1: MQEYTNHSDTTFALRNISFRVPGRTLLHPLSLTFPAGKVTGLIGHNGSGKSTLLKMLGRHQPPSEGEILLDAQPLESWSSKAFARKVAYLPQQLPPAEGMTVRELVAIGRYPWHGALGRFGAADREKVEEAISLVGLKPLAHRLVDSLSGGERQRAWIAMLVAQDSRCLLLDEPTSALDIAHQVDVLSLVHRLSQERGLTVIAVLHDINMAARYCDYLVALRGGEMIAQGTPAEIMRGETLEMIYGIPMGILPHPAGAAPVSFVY
T3 sequence (chain, His-tag labeled with the red-tris-NTA 2nd generation dye (in the MST)) 2: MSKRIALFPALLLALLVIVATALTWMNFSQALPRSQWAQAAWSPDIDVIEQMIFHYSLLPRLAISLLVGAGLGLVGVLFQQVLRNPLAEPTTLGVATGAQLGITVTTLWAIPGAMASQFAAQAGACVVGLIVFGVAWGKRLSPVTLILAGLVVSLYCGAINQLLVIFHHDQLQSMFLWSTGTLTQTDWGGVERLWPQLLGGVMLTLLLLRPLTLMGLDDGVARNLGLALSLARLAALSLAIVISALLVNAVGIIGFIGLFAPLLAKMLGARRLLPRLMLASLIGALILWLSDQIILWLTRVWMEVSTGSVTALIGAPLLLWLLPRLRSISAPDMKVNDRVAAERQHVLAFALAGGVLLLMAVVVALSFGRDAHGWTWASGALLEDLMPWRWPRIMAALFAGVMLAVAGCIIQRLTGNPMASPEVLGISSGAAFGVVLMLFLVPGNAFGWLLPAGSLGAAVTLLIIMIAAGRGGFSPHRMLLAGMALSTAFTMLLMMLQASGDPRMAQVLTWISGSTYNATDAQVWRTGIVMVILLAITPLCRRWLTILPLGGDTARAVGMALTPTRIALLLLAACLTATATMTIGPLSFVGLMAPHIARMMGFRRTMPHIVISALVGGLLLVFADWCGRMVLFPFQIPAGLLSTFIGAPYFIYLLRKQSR
As to the kind of experiment: SEC. Background: Size exclusion chromatography separates by hydrodynamic size, large species first.

In experiment [5] the target is T3, FhuCB subcomplex (wild type; membrane subunit FhuB and ATPase FhuC) (Escherichia coli). As to the kind of experiment: cryo-EM structure.

No constants are given. Whether binding was seen depends on the method and setting. Some entries that bind do so weakly or less than the wild type. For part of these data: Sequences can lack the tags named with a protein.

B1: FhuB (membrane subunit, co-expressed with FhuC) (protein, UniProt P06972 1-660)
chain: MSKRIALFPALLLALLVIVATALTWMNFSQALPRSQWAQAAWSPDIDVIEQMIFHYSLLPRLAISLLVGAGLGLVGVLFQQVLRNPLAEPTTLGVATGAQLGITVTTLWAIPGAMASQFAAQAGACVVGLIVFGVAWGKRLSPVTLILAGLVVSLYCGAINQLLVIFHHDQLQSMFLWSTGTLTQTDWGGVERLWPQLLGGVMLTLLLLRPLTLMGLDDGVARNLGLALSLARLAALSLAIVISALLVNAVGIIGFIGLFAPLLAKMLGARRLLPRLMLASLIGALILWLSDQIILWLTRVWMEVSTGSVTALIGAPLLLWLLPRLRSISAPDMKVNDRVAAERQHVLAFALAGGVLLLMAVVVALSFGRDAHGWTWASGALLEDLMPWRWPRIMAALFAGVMLAVAGCIIQRLTGNPMASPEVLGISSGAAFGVVLMLFLVPGNAFGWLLPAGSLGAAVTLLIIMIAAGRGGFSPHRMLLAGMALSTAFTMLLMMLQASGDPRMAQVLTWISGSTYNATDAQVWRTGIVMVILLAITPLCRRWLTILPLGGDTARAVGMALTPTRIALLLLAACLTATATMTIGPLSFVGLMAPHIARMMGFRRTMPHIVISALVGGLLLVFADWCGRMVLFPFQIPAGLLSTFIGAPYFIYLLRKQSR
Turning to B1, the figures for the binding result in experiment [1], in experiment [2] and in experiment [3] were “binds”, “binds” and “no binding”, respectively.

B2: FhuD (co-expressed from the whole FhuCDB operon, in the purified FhuCDB complex) (protein, UniProt P07822 31-296)
chain: AAIDPNRIVALEWLPVELLLALGIVPYGVADTINYRLWVSEPPLPDSVIDVGLRTEPNLELLTEMKPSFMVWSAGYGPSPEMLARIAPGRGFNFSDGKQPLAMARKSLTEMADLLNLQSAAETHLAQYEDFIRSMKPRFVKRGARPLLLTTLIDPRHMLVFGPNSLFQEILDEYGIPNAWQGETNFWGSTAVSIDRLAAYKDVDVLCFDHDNSKDMDALMATPLWQAMPFVRAGRFQRVPAVWFYGATLSAMHFVRVLDNAIGGKA
Regarding B2, the binding result in experiment [4], in experiment [3] and in experiment [5] was “binds” each time.

(Values after publication doi:10.1101/2021.06.15.448540.)
